The other results are listed elsewhere or left out.
How the values were obtained:
Assay in all cases: log2 fold change, soluble protein after heating vs DMSO (PISA); higher = thermal stabilisation; K562 cells, 10 uM, 30 min; active = over 0.2 and 3.5 SD of the protein, either way, in both replicates (recomputed)
[1] = compound: CC[C@@H]1C(=O)N(C)c2cnc(Nc3ccc(C(=O)NC4CCN(C)CC4)cc3OC)nc2N1C1CCCC1
In short: (§1)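 K562 cells at 2×10^6 cells/mL were exposed to 10 μM compound for 30 min, then aliquots were heated for 3 min across 48°C-58°C, pooled, and extracted in PBS containing 0.5% NP-40 at 4°C. The supernatant after 21,000xg for 90 min was taken as soluble protein and measured by TMTpro 16plex LC-MS/MS with channel sums equalised. Thermal stability is reported relative to control samples, with values from duplicates. Fold changes are given on a log2 scale.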

Protein sequences, listed by entry. Tags and fused reporters are not part of them. Lines headed by an entry give the natural chain unless they say otherwise; changes in a name come on top.
UniProt Q96GC9: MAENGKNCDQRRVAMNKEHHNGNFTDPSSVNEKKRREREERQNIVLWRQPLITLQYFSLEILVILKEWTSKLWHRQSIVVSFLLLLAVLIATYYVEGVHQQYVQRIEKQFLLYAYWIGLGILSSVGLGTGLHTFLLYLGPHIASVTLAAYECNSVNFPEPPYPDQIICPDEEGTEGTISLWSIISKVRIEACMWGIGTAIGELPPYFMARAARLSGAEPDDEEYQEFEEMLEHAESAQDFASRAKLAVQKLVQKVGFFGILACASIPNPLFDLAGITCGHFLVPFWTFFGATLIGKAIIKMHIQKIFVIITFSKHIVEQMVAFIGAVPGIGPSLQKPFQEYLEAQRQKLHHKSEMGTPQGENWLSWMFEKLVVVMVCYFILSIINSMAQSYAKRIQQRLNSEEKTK
UniProt Q9Y6W5, whole entry, looked up: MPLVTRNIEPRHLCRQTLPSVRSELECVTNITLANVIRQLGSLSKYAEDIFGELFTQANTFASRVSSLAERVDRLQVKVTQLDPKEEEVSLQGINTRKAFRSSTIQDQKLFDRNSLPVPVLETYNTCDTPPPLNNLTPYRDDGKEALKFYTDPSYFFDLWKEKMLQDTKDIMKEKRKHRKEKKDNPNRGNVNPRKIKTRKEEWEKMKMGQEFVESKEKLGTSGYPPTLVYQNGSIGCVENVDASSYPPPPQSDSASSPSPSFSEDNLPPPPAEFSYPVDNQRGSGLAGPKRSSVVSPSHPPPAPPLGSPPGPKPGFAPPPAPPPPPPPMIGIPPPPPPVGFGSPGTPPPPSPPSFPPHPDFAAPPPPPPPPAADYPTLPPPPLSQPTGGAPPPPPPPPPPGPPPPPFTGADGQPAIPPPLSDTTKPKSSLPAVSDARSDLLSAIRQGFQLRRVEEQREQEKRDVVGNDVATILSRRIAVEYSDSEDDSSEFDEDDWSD
UniProt O75351, whole entry, looked up: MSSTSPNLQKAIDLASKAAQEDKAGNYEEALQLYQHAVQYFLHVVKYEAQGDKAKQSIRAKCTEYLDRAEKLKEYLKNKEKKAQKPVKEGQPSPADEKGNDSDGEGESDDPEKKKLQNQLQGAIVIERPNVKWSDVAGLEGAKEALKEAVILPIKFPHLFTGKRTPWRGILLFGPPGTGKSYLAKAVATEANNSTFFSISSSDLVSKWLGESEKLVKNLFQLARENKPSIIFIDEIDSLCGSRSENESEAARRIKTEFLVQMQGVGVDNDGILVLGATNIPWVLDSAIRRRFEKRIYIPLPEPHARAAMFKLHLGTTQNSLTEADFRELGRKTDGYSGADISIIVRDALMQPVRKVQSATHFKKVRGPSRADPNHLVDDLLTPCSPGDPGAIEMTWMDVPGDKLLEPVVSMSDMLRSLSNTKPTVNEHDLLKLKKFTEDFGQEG
UniProt Q4G0F5, whole entry, looked up: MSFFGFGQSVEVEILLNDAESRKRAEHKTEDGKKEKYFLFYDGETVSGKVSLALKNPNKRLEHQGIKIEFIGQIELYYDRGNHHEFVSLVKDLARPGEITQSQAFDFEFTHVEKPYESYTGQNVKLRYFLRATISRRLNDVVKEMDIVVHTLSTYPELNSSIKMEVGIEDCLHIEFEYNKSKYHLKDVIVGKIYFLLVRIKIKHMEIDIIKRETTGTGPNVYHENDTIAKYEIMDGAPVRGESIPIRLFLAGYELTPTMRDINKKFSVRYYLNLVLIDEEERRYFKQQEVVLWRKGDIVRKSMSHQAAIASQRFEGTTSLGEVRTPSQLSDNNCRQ
UniProt Q96FK6: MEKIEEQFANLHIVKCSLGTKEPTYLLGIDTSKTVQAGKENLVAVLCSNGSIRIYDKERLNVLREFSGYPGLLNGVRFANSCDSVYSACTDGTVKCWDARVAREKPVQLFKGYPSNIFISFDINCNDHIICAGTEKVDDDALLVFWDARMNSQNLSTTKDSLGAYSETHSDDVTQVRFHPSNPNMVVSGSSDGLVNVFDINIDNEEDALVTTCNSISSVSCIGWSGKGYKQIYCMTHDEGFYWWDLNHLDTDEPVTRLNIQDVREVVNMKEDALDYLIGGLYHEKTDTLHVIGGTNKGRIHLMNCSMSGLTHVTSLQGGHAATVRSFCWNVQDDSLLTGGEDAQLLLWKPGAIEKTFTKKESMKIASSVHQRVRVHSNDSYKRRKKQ
UniProt Q8N2E2: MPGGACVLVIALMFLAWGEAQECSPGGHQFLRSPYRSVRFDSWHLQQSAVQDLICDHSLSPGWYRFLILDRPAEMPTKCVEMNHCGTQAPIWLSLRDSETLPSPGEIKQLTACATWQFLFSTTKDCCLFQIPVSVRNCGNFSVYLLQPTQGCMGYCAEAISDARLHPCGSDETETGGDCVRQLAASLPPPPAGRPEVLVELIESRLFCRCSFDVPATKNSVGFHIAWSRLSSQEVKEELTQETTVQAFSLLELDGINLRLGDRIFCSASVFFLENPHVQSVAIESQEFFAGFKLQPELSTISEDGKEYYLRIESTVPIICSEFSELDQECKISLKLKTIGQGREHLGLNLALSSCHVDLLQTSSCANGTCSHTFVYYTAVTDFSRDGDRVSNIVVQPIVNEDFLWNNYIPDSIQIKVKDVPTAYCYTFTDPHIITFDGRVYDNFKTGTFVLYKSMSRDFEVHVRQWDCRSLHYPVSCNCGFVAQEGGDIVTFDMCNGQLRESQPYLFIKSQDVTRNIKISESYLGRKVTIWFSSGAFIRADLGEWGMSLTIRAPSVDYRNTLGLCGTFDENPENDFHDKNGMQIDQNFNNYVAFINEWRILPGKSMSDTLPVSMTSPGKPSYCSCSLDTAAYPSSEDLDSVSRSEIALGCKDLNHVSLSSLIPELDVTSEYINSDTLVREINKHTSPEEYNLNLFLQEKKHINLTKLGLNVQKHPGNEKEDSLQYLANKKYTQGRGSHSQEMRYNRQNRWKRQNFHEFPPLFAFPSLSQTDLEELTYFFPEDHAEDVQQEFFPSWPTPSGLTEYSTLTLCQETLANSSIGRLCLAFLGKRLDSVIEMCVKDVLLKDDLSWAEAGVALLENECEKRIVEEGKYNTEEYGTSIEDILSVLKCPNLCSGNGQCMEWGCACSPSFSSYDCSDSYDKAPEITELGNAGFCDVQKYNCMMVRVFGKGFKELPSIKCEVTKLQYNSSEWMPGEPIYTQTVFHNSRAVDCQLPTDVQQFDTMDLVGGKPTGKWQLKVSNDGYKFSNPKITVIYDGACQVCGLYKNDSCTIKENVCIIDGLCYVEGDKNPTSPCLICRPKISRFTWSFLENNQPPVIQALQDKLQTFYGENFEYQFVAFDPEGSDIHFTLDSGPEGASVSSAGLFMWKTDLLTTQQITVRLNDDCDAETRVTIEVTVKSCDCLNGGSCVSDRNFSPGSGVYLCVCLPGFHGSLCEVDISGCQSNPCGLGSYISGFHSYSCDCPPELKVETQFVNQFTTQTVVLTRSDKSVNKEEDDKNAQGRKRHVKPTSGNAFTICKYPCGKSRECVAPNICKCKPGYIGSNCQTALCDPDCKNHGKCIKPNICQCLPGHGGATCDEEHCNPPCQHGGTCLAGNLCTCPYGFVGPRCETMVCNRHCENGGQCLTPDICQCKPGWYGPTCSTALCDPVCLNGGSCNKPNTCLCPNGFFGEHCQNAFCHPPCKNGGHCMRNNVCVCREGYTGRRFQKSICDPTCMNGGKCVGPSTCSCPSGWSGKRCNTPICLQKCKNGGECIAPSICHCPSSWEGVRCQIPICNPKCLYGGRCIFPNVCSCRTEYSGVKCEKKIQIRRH
UniProt Q9NNW5: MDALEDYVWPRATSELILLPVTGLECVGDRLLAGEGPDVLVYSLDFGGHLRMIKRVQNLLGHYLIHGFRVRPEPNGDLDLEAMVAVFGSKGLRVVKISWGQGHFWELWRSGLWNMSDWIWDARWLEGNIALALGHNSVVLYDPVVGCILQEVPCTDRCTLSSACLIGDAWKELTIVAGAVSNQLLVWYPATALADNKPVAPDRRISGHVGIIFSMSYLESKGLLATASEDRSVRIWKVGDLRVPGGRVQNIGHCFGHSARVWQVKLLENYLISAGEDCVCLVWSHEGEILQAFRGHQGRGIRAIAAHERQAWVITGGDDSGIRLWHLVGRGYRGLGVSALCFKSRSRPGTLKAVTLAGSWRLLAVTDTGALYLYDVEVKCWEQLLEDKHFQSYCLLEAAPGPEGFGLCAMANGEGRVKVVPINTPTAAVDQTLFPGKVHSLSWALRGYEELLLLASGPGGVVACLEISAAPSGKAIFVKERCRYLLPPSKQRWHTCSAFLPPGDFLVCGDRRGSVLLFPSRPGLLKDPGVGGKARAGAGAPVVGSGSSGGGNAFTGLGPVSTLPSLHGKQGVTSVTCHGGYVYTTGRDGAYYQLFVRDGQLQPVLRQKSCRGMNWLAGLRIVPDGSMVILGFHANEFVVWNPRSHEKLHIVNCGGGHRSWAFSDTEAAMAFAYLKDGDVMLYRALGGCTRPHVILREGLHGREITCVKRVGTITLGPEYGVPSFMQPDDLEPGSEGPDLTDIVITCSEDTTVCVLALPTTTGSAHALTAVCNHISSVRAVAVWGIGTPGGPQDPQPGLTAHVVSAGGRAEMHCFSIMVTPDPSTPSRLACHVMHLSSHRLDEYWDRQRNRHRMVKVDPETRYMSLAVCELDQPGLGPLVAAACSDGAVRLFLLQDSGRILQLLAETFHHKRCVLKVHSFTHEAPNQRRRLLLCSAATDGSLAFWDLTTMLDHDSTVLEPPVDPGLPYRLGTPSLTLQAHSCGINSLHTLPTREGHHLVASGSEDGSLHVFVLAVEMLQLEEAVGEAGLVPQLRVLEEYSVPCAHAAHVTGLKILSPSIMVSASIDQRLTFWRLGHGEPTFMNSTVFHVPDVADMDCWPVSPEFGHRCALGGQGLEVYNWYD
UniProt Q9Y4P8: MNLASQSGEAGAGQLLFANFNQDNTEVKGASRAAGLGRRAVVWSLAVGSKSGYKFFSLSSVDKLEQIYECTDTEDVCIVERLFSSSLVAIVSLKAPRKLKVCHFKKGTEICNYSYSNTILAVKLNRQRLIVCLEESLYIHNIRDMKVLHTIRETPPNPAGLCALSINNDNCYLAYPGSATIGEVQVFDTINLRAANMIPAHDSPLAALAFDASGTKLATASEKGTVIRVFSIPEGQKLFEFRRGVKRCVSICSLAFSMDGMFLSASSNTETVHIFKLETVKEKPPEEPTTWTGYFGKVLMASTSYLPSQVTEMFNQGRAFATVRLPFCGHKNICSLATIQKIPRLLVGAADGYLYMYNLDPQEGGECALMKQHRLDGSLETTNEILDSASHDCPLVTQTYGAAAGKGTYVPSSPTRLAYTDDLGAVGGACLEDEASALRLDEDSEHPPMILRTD
UniProt Q6UXN9, whole entry, looked up: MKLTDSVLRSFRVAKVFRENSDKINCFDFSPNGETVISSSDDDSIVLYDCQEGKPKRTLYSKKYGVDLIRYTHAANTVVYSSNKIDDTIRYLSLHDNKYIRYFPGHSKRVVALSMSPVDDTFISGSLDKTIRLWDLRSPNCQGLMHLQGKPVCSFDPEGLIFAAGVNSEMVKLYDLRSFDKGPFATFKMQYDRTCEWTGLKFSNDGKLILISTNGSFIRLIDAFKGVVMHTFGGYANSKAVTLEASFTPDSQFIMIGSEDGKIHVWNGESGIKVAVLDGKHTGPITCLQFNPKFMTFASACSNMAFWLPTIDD
UniProt Q9NW82: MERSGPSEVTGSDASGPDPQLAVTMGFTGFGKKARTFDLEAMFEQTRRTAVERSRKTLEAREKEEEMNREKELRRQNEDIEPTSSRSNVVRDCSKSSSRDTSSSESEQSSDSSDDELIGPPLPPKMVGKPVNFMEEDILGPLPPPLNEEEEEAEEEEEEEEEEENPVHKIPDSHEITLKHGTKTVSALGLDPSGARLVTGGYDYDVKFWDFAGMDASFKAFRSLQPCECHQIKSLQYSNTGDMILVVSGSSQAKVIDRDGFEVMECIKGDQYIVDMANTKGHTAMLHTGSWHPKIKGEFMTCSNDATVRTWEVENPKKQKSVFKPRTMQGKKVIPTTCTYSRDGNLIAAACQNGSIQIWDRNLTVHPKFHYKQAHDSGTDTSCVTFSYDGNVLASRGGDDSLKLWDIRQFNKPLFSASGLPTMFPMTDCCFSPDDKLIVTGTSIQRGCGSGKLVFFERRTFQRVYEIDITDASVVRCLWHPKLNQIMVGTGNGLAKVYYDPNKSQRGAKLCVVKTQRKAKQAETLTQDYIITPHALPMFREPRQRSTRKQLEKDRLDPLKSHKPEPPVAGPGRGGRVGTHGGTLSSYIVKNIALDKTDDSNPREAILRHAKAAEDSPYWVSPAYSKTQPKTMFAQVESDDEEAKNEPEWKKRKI

volasertib = compound: CC[C@@H]1C(=O)N(C)c2cnc(Nc3ccc(C(=O)N[C@H]4CC[C@H](N5CCN(CC6CC6)CC5)CC4)cc3OC)nc2N1C(C)C [volasertib]
In short: as §1

[2] = compound: CC[C@H](C)N1C=C(C2=C(C=C(C=C21)C3=CN=C(C=C3)N4CCNCC4)C(=O)NCC5=C(C=C(NC5=O)C)C)C
In short: as §1

epoxomicin = compound: CC[C@H](C)[C@@H](C(=O)N[C@@H]([C@@H](C)O)C(=O)N[C@@H](CC(C)C)C(=O)[C@]1(CO1)C)NC(=O)[C@H]([C@@H](C)CC)N(C)C(=O)C [epoxomicin]
In short: as §1

[3] = compound: CCn1c(C(=O)N(C2CC2)C2CC2)cc2c3c(ncn3C)c(Nc3cc(C)n(C)n3)nc21
In short: as §1

[4] = compound: CCn1cc(-c2ccnc3[nH]c(-c4cccc(CN(C)C)c4)cc23)c(-c2ccc(NC(=O)N(C)C)cc2)n1
In short: as §1

[5] = compound: CN(C)CC(=O)Nc1ccc2[nH]c(=O)c3ccccc3c2c1
In short: as §1

rosiglitazone = compound: CN(CCOC1=CC=C(C=C1)C[C@H]2C(=O)NC(=O)S2)C3=CC=CC=N3 (racemic) [rosiglitazone]
In short: as §1

[6] = compound: CN1C2=C(C3=C1C(=O)N(N=C3)CC4=CC(=CC=C4)N)SC(=C2)S(=O)C
In short: as §1

[7] = compound: CN1CCC(CNc2ccc3ncc(-c4cccc(OC(F)(F)F)c4)n3n2)CC1
In short: as §1

saracatinib = compound: CN1CCN(CCOc2cc(OC3CCOCC3)c3c(Nc4c(Cl)ccc5c4OCO5)ncnc3c2)CC1 [saracatinib]
In short: as §1

sotrastaurin = compound: CN1CCN(c2nc(C3=C(c4c[nH]c5ccccc45)C(=O)NC3=O)c3ccccc3n2)CC1 [sotrastaurin]
In short: as §1

alvocidib = compound: CN1CC[C@H](c2c(O)cc(O)c3c(=O)cc(-c4ccccc4Cl)oc23)[C@H](O)C1 [alvocidib]
In short: as §1

Tubastatin A = compound: CN1CCc2c(c3ccccc3n2Cc2ccc(C(=O)NO)cc2)C1 [Tubastatin A]
In short: as §1

[8] = compound: CNC(=O)C1=CC=CC=C1NC2=NC(=NC=C2Cl)NC3=C(C=C(C=C3)N4CCOCC4)OC
In short: as §1

defactinib = compound: CNC(=O)c1ccc(Nc2ncc(C(F)(F)F)c(NCc3nccnc3N(C)S(C)(=O)=O)n2)cc1 [defactinib]
In short: as §1

rucaparib = compound: CNCc1ccc(-c2[nH]c3cc(F)cc4c3c2CCNC4=O)cc1 [rucaparib]
In short: as §1

[9] = compound: CNc1nc(-c2ccc3c(N)n[nH]c3c2)cc(N2C[C@@H](C(=O)NC3CCCCC3)CC[C@H]2C)n1
In short: as §1

encorafenib = compound: COC(=O)N[C@@H](C)CNc1nccc(-c2cn(C(C)C)nc2-c2cc(Cl)cc(NS(C)(=O)=O)c2F)n1 [encorafenib]
In short: as §1

[10] = compound: COC(=O)[C@H](CCSC)NC(=O)C1=C(C=C(C=C1)NC[C@H](CS)N)C2=CC=CC=C2
In short: as §1

Measured: log2 fold change

VPS26A (UniProt O75436)
inactive: [1] 0.019 | volasertib -0.087 | [2] 0.028 | epoxomicin 0.033 | [3] 0.01 | [4] -0.043 | [5] 0.035 | rosiglitazone 0.074 | [6] -0.073 | [7] -0.058 | saracatinib 0.028 | sotrastaurin -0.009 | alvocidib -0.049 | Tubastatin A -0.015 | [8] -0.001 | defactinib -0.076 | rucaparib -0.083 | [9] -0.006 | encorafenib 0.053 | [10] -0.08

VMP1 (UniProt Q96GC9)
inactive: [1] 0.033 | volasertib -0.009 | [2] -0.022 | epoxomicin -0.055 | [3] 0.058 | [4] -0.076 | [5] -0.039 | rosiglitazone 0.012 | [6] -0.04 | [7] 0.034 | saracatinib 0.084 | sotrastaurin 0.25 | alvocidib -0.015 | Tubastatin A -0.018 | [8] 0.009 | defactinib -0.033 | rucaparib 0 | [9] -0.011 | encorafenib 0.008 | [10] -0.005

WASF2 (UniProt Q9Y6W5)
inactive: [1] -0.036 | volasertib -0.104 | [2] 0.015 | epoxomicin -0.014 | [3] 0.071 | [4] 0.039 | [5] -0.029 | rosiglitazone -0.011 | [6] -0.029 | [7] -0.042 | saracatinib 0.055 | sotrastaurin -0.033 | alvocidib -0.024 | Tubastatin A 0.024 | [8] -0.017 | defactinib 0 | rucaparib -0.095 | [9] -0.06 | encorafenib 0.001 | [10] 0.034

VPS4B (UniProt O75351)
inactive: [1] -0.1 | volasertib -0.131 | [2] 0.079 | epoxomicin -0.001 | [3] 0 | [4] -0.034 | [5] 0.045 | rosiglitazone 0.044 | [6] -0.026 | [7] -0.111 | saracatinib -0.013 | sotrastaurin 0.024 | alvocidib -0.051 | Tubastatin A -0.008 | [8] 0.001 | defactinib -0.042 | rucaparib 0.003 | [9] -0.014 | encorafenib -0.02 | [10] -0.038

VPS26B (UniProt Q4G0F5)
inactive: [1] -0.009 | volasertib -0.068 | [2] 0.007 | epoxomicin -0.029 | [3] 0 | [4] -0.103 | [5] -0.03 | rosiglitazone 0.016 | [6] -0.094 | [7] -0.173 | saracatinib 0.032 | sotrastaurin 0.014 | alvocidib -0.041 | Tubastatin A -0.008 | [8] -0.021 | defactinib 0 | rucaparib -0.004 | [9] 0.004 | encorafenib 0.026 | [10] 0.029

WDR13 (UniProt Q9H1Z4)
inactive: [1] 0.051 | volasertib -0.013 | [2] -0.028 | epoxomicin 0.009 | [3] 0.005 | [4] -0.06 | [5] -0.021 | rosiglitazone 0.041 | [6] -0.021 | [7] -0.021 | saracatinib 0.029 | sotrastaurin -0.01 | alvocidib -0.088 | Tubastatin A -0.019 | [8] -0.083 | defactinib -0.06 | rucaparib 0.048 | [9] -0.043 | encorafenib -0.025 | [10] -0.012

VCX3B (UniProt Q9H321)
inactive: [1] -0.003 | volasertib -0.018 | [2] -0.078 | epoxomicin -0.063 | [3] 0.001 | [4] 0.032 | [5] -0.042 | rosiglitazone 0.014 | [6] -0.026 | [7] -0.113 | saracatinib -0.022 | sotrastaurin 0.087 | alvocidib 0 | Tubastatin A -0.047 | [8] -0.057 | defactinib -0.025 | rucaparib 0.021 | [9] -0.076 | encorafenib -0.043 | [10] 0.032

WIZ isoform 3 (UniProt O95785)
inactive: [1] -0.006 | volasertib -0.032 | [2] -0.091 | epoxomicin -0.013 | [3] -0.019 | [4] -0.02 | [5] 0.024 | rosiglitazone 0.064 | [6] 0 | [7] -0.105 | saracatinib -0.047 | sotrastaurin -0.015 | alvocidib -0.014 | Tubastatin A 0.226 | [8] -0.089 | defactinib 0.046 | rucaparib 0.036 | [9] 0.036 | encorafenib 0.098 | [10] 0.034

WDR89 (UniProt Q96FK6)
inactive: [1] 0.052 | volasertib -0.007 | [2] -0.017 | epoxomicin -0.014 | [3] 0.009 | [4] 0 | [5] -0.002 | rosiglitazone 0.038 | [6] -0.02 | [7] -0.057 | saracatinib 0.081 | sotrastaurin 0.013 | alvocidib -0.036 | Tubastatin A -0.021 | [8] -0.048 | defactinib -0.006 | rucaparib 0.038 | [9] -0.043 | encorafenib -0.036 | [10] 0.095

VWDE (UniProt Q8N2E2)
inactive: [1] 0.009 | volasertib -0.007 | [2] -0.053 | epoxomicin 0.041 | [3] 0.024 | [4] -0.007 | [5] -0.048 | rosiglitazone -0.032 | [6] 0.042 | [7] 0.005 | saracatinib -0.114 | sotrastaurin 0.018 | alvocidib 0 | Tubastatin A 0.068 | [8] -0.016 | defactinib 0.032 | rucaparib 0.033 | [9] 0.025 | encorafenib 0.028 | [10] 0.028

WDR6 (UniProt Q9NNW5)
inactive: [1] -0.017 | volasertib 0.053 | [2] -0.001 | epoxomicin -0.009 | [3] -0.006 | [4] -0.029 | [5] -0.014 | rosiglitazone -0.031 | [6] -0.024 | [7] 0.125 | saracatinib -0.004 | sotrastaurin 0.174 | alvocidib 0.028 | Tubastatin A 0.023 | [8] -0.019 | defactinib -0.006 | rucaparib -0.046 | [9] 0.01 | encorafenib -0.03 | [10] -0.013

WIPI2 (UniProt Q9Y4P8)
inactive: [1] -0.089 | volasertib -0.191 | [2] 0.019 | epoxomicin 0.035 | [3] -0.112 | [4] -0.03 | [5] 0.015 | rosiglitazone 0.003 | [6] 0.012 | [7] -0.071 | saracatinib 0.066 | sotrastaurin 0.012 | alvocidib -0.054 | Tubastatin A 0.025 | [8] 0.006 | defactinib 0.007 | rucaparib 0.008 | [9] 0.014 | encorafenib 0.061 | [10] -0.003

WDR82 (UniProt Q6UXN9)
inactive: [1] 0.135 | volasertib 0.098 | [2] -0.005 | epoxomicin -0.092 | [3] -0.002 | [4] 0.136 | [5] -0.034 | rosiglitazone -0.079 | [6] 0.117 | [7] 0.213 | saracatinib 0.004 | sotrastaurin 0.03 | alvocidib 0.118 | Tubastatin A -0.004 | [8] 0.002 | defactinib 0.108 | rucaparib 0.185 | [9] 0.018 | encorafenib 0.03 | [10] -0.007

Fetched one by one from above, two records:
WIPI2 (UniProt Q9Y4P8)
inactive: [1] -0.089 | volasertib -0.191 | [2] 0.019 | epoxomicin 0.035 | [3] -0.112 | [4] -0.03 | [5] 0.015 | rosiglitazone 0.003 | [6] 0.012 | [7] -0.071 | saracatinib 0.066 | sotrastaurin 0.012 | alvocidib -0.054 | Tubastatin A 0.025 | [8] 0.006 | defactinib 0.007 | rucaparib 0.008 | [9] 0.014 | encorafenib 0.061 | [10] -0.003

VPS4B (UniProt O75351)
inactive: [1] -0.1 | volasertib -0.131 | [2] 0.079 | epoxomicin -0.001 | [3] 0 | [4] -0.034 | [5] 0.045 | rosiglitazone 0.044 | [6] -0.026 | [7] -0.111 | saracatinib -0.013 | sotrastaurin 0.024 | alvocidib -0.051 | Tubastatin A -0.008 | [8] 0.001 | defactinib -0.042 | rucaparib 0.003 | [9] -0.014 | encorafenib -0.02 | [10] -0.038

Further results follow:

WDR59 (UniProt Q6PJI9)
inactive: [1] -0.017 | volasertib -0.033 | [2] -0.101 | epoxomicin 0.255 | [3] -0.006 | [4] -0.008 | [5] -0.021 | rosiglitazone 0.067 | [6] 0.061 | [7] 0.062 | saracatinib 0.084 | sotrastaurin -0.127 | alvocidib 0.019 | Tubastatin A 0.043 | [8] -0.011 | defactinib 0.13 | rucaparib 0.1 | [9] 0.008 | encorafenib 0.085 | [10] -0.091

WDR12 (UniProt Q9GZL7)
inactive: [1] 0.009 | volasertib -0.053 | [2] -0.007 | epoxomicin 0.005 | [3] 0.024 | [4] 0 | [5] -0.007 | rosiglitazone 0.012 | [6] -0.017 | [7] -0.035 | saracatinib 0.051 | sotrastaurin 0.006 | alvocidib -0.045 | Tubastatin A -0.007 | [8] -0.029 | defactinib -0.021 | rucaparib -0.05 | [9] -0.021 | encorafenib 0.013 | [10] 0.022

WDR70 (UniProt Q9NW82)
inactive: [1] 0.025 | volasertib -0.007 | [2] 0.017 | epoxomicin 0.05 | [3] 0.003 | [4] -0.021 | [5] -0.005 | rosiglitazone 0.025 | [6] -0.07 | [7] 0.04 | saracatinib 0.001 | sotrastaurin -0.007 | alvocidib -0.038 | Tubastatin A 0.008 | [8] 0.03 | defactinib -0.004 | rucaparib -0.024 | [9] -0.016 | encorafenib -0.019 | [10] 0
